Reference: the supplement of paper PMC8728848
The list shows a part of the results.

Columns and labels:
Assay in all cases: glycan array binding signal (z-score within array); higher = stronger binding
Settings in all cases: glycan notation: IUPAC condensed, linker removed
[1] = biological target: Gal(b1-3)GlcNAc(b1-6)[Gal(b1-3)]GalNAc
Outline: (§1)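 Glycan array data came from 3228 arrays in the Consortium for Functional Glycomics database, and only arrays with an available protein sequence were kept. Glycan names were put into IUPAC-condensed notation, and columns mapping to the same glycan were averaged. The binding signal is a within-array Z-score, averaged across arrays of one protein sequence run at different concentrations or buffers and across linkers. A negative Z-score can be read as non-binding.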

Gal(b1-3)GlcNAc6S = biological target: Gal(b1-3)GlcNAc6S
Outline: as §1

[2] = biological target: Gal(b1-3)[Fuc(a1-4)]GlcNAc
Outline: as §1

[3] = biological target: Gal(b1-3)[Fuc(a1-4)]GlcNAc(b1-2)Man
Outline: as §1

[4] = biological target: Gal(b1-3)[Fuc(a1-4)]GlcNAc(b1-2)Man(a1-3)[Gal(b1-3)[Fuc(a1-4)]GlcNAc(b1-2)Man(a1-6)]Man(b1-4)GlcNAc(b1-4)[Fuc(a1-6)]GlcNAc
Outline: as §1

[5] = biological target: Gal(b1-3)[Fuc(a1-4)]GlcNAc(b1-3)Gal(b1-3)[Fuc(a1-4)]GlcNAc
Outline: as §1

[6] = biological target: Gal(b1-3)[Fuc(a1-4)]GlcNAc(b1-3)Gal(b1-4)[Fuc(a1-3)]GlcNAc
Outline: as §1

[7] = biological target: Gal(b1-3)[Fuc(a1-4)]GlcNAc(b1-6)GalNAc
Outline: as §1

[8] = biological target: Gal(b1-3)[GlcNAc(b1-6)]GalNAc
Outline: as §1

[9] = biological target: Gal(b1-3)[Neu5Ac(a2-6)]GalNAc
Outline: as §1

[10] = biological target: Gal(b1-3)[Neu5Ac(a2-6)]GlcNAc(b1-4)Gal(b1-4)Glc
Outline: as §1

[11] = biological target: Gal(b1-3)[Neu5Ac(b2-6)]GalNAc
Outline: as §1

Gal(b1-4)Gal = biological target: Gal(b1-4)Gal
Outline: as §1

[12] = biological target: Gal(b1-4)GalNAc(a1-3)[Fuc(a1-2)]Gal(b1-4)GlcNAc
Outline: as §1

[13] = biological target: Gal(b1-4)GalNAc(b1-3)[Fuc(a1-2)]Gal(b1-4)GlcNAc
Outline: as §1

Gal(b1-4)Glc = biological target: Gal(b1-4)Glc
Outline: as §1

Gal(b1-4)Glc6S = biological target: Gal(b1-4)Glc6S
Outline: as §1

Gal(b1-4)GlcNAc = biological target: Gal(b1-4)GlcNAc
Outline: as §1

[14] = biological target: Gal(b1-4)GlcNAc(a1-6)Gal(b1-4)GlcNAc
Outline: as §1

Gal(b1-4)GlcNAc(b1-2)Man = biological target: Gal(b1-4)GlcNAc(b1-2)Man
Outline: as §1

[15] = biological target: Gal(b1-4)GlcNAc(b1-2)Man(a1-3)Man(b1-4)GlcNAc(b1-4)GlcNAc
Outline: as §1

[16] = biological target: Gal(b1-4)GlcNAc(b1-2)Man(a1-3)[Gal(b1-4)GlcNAc(b1-2)Man(a1-6)]Man(b1-4)GlcNAc(b1-4)GlcNAc
Outline: as §1

[17] = biological target: Gal(b1-4)GlcNAc(b1-2)Man(a1-3)[Gal(b1-4)GlcNAc(b1-2)Man(a1-6)]Man(b1-4)GlcNAc(b1-4)[Fuc(a1-6)]GlcNAc
Outline: as §1

[18] = biological target: Gal(b1-4)GlcNAc(b1-2)Man(a1-3)[Gal(b1-4)GlcNAc(b1-2)Man(a1-6)][Gal(b1-4)GlcNAc(b1-4)]Man(b1-4)GlcNAc(b1-4)[Fuc(a1-6)]GlcNAc
Outline: as §1

[19] = biological target: Gal(b1-4)GlcNAc(b1-2)Man(a1-3)[Gal(b1-4)GlcNAc(b1-2)Man(a1-6)][GlcNAc(b1-4)]Man(b1-4)GlcNAc(b1-4)[Fuc(a1-6)]GlcNAc
Outline: as §1

[20] = biological target: Gal(b1-4)GlcNAc(b1-2)Man(a1-3)[GlcNAc(b1-2)Man(a1-6)]Man(b1-4)GlcNAc(b1-4)GlcNAc
Outline: as §1

[21] = biological target: Gal(b1-4)GlcNAc(b1-2)Man(a1-3)[GlcNAc(b1-4)][Gal(b1-4)GlcNAc(b1-2)Man(a1-6)]Man(b1-4)GlcNAc(b1-4)GlcNAc
Outline: as §1

[22] = biological target: Gal(b1-4)GlcNAc(b1-2)Man(a1-3)[Man(a1-6)]Man(b1-4)GlcNAc(b1-4)GlcNAc
Outline: as §1

[23] = biological target: Gal(b1-4)GlcNAc(b1-2)Man(a1-6)Man(b1-4)GlcNAc(b1-4)GlcNAc
Outline: as §1

[24] = biological target: Gal(b1-4)GlcNAc(b1-2)Man(a1-6)[GlcNAc(b1-2)Man(a1-3)]Man(b1-4)GlcNAc(b1-4)GlcNAc
Outline: as §1

[25] = biological target: Gal(b1-4)GlcNAc(b1-2)Man(a1-6)[Man(a1-3)]Man(b1-4)GlcNAc(b1-4)GlcNAc
Outline: as §1

[26] = biological target: Gal(b1-4)GlcNAc(b1-2)[Gal(b1-4)GlcNAc(b1-4)]Man(a1-3)[Gal(b1-4)GlcNAc(b1-2)Man(a1-6)]Man(b1-4)GlcNAc(b1-4)GlcNAc
Outline: as §1

[27] = biological target: Gal(b1-4)GlcNAc(b1-2)[Gal(b1-4)GlcNAc(b1-4)]Man(a1-3)[Gal(b1-4)GlcNAc(b1-2)[Gal(b1-4)GlcNAc(b1-6)]Man(a1-6)]Man(b1-4)GlcNAc(b1-4)GlcNAc
Outline: as §1

[28] = biological target: Gal(b1-4)GlcNAc(b1-2)[Gal(b1-4)GlcNAc(b1-4)]Man(a1-3)[GlcNAc(b1-4)][Gal(b1-4)GlcNAc(b1-2)Man(a1-6)]Man(b1-4)GlcNAc(b1-4)GlcNAc
Outline: as §1

[29] = biological target: Gal(b1-4)GlcNAc(b1-2)[Gal(b1-4)GlcNAc(b1-4)]Man(a1-3)[GlcNAc(b1-4)][Gal(b1-4)GlcNAc(b1-2)[Gal(b1-4)GlcNAc(b1-6)]Man(a1-6)]Man(b1-4)GlcNAc(b1-4)GlcNAc
Outline: as §1

[30] = biological target: Gal(b1-4)GlcNAc(b1-2)[Gal(b1-4)GlcNAc(b1-6)]Man(a1-6)[Gal(b1-4)GlcNAc(b1-2)Man(a1-3)]Man(b1-4)GlcNAc(b1-4)GlcNAc
Outline: as §1

[31] = biological target: Gal(b1-4)GlcNAc(b1-2)[Gal(b1-4)GlcNAc(b1-6)]Man(a1-6)[Gal(b1-4)GlcNAc(b1-2)Man(a1-3)]Man(b1-4)GlcNAc(b1-4)[Fuc(a1-6)]GlcNAc
Outline: as §1

B1: Gs78B-bfa-542-29-542 (Bacteroides fragilis) (protein)
chain: SEDINRNPLLPTKEDEKMDGVIYGAYLPNLEKSVIPIGTASESTEPVNRYQIGVNLAGDAWAGYMSPRDNKFNGSKNFTNYFMYENWVNYVYSFMVTDVYSPWMQIKRISQDEGTRNDEIYALAQIIKIAALHRTTDMFGPIPYSQVGKGSFKVAYDSQESVYRSFLKELEEAVQTLDDYSNKSKEVLPAFDIVYNGDVNKWMRFANSLMLRLAIRVRFADAGLAKEYAEKAVKHPAGLINSKELAAQMGKGAGLQMKNPLKVINEEYNDTRMGATIYSYLAGYNDARAAVYFVKNNGFKAVRCGIAKSGDAYNGFTRPNVHEDDPLYWMKASEVCFLKAEGALAGFDMGGSAGDFYNAGIRMSFSENGLDNSSAETYLKDSTRKPANYTDTSNGELSANAPSSITIRWENGATEEEKLERIITQKYLAIFPNGQEAWTEWRRTGYPRQIVVAENKTNSAVLIGNGYDLGGVRRLPYPRTEYEQNGENLHNAISQYLGGVDNAATKVWWDKKSK
glycan array binding signal (z-score) [1]: 1.47 | glycan array binding signal (z-score) (Gal(b1-3)GlcNAc6S): 2.8 | glycan array binding signal (z-score) [2]: -0.728 | glycan array binding signal (z-score) [3]: -0.693 | glycan array binding signal (z-score) [4]: 0.989 | glycan array binding signal (z-score) [5]: -0.682 | glycan array binding signal (z-score) [6]: -0.845 | glycan array binding signal (z-score) [7]: 0.181 | glycan array binding signal (z-score) [8]: 0.287 | glycan array binding signal (z-score) [9]: -0.066 | glycan array binding signal (z-score) [10]: 0.135 | glycan array binding signal (z-score) [11]: -0.433 | glycan array binding signal (z-score) (Gal(b1-4)Gal): -0.04 | glycan array binding signal (z-score) [12]: -0.343 | glycan array binding signal (z-score) [13]: 0.014 | glycan array binding signal (z-score) (Gal(b1-4)Glc): -0.081 | glycan array binding signal (z-score) (Gal(b1-4)Glc6S): 0.336 | glycan array binding signal (z-score) (Gal(b1-4)GlcNAc): 1.24 | glycan array binding signal (z-score) [14]: -0.134 | glycan array binding signal (z-score) (Gal(b1-4)GlcNAc(b1-2)Man): 0.886 | glycan array binding signal (z-score) [15]: 0.534 | glycan array binding signal (z-score) [16]: 1.74 | glycan array binding signal (z-score) [17]: 0.257 | glycan array binding signal (z-score) [18]: -0.068 | glycan array binding signal (z-score) [19]: -0.175 | glycan array binding signal (z-score) [20]: -0.582 | glycan array binding signal (z-score) [21]: -0.311 | glycan array binding signal (z-score) [22]: 1.73 | glycan array binding signal (z-score) [23]: 0.511 | glycan array binding signal (z-score) [24]: 0.385 | glycan array binding signal (z-score) [25]: -0.01 | glycan array binding signal (z-score) [26]: 0.215 | glycan array binding signal (z-score) [27]: -0.433 | glycan array binding signal (z-score) [28]: 1.34 | glycan array binding signal (z-score) [29]: 1.22 | glycan array binding signal (z-score) [30]: 1.16 | glycan array binding signal (z-score) [31]: 1.05
